# Measurements: patent publication US20130035243A1
# Results are given in words; binding and its absence hold for the method and conditions named. Binding seen in cells or lysates may run through a third protein. Some binding calls cover weakened binding; strength is not graded here. Where a sequence is shown, tags or fusion partners need not be part of it.
# B1: FLAG-KLF6SV1 (FLAG-tagged KLF6 splice variant-1) (protein, not shown: small tags and cut ends)
# chain: MDVLPMCSIFQELQIVHETGYFSALPSLEEYWQQTCLELERYLQSEPCYVSASEIKFDSQEDLWTKIILAREKKEESELKISSSPPEDTLISPSFCYNLETNSLNSDVSSESSDSSEELSPTAKFTSDPIGEVLVSSGKLSSSVTSTPPSSPELSREPSQLWGCVPGELPSPGKEKSLTDAHGKGVSGVLQEVMS
# How the values were obtained:
# [1] = target: HA-wtKLF6 (wild type, full length KLF6 with an additional HA tag) (human) (UniProt Q99612); experiment: co-immunoprecipitation from cotransfected 293T cells, Western blot
# [2] = target: HA-wtKLF6 (wild type, full length KLF6 with an additional HA tag) (human) (UniProt Q99612); experiment: co-immunoprecipitation from cotransfected 293T cells (FLAG/HA beads), Western blot
binder,measurement,setting,value
B1,binding,[1],binds
same,binding,[2],binds
